# Assay results published in doi:10.1101/2023.12.14.571518 (bioRxiv, 2023).
# Results are given in words; binding and its absence hold for the method and conditions named. In cells and extracts the contact can be indirect. A yes stands for co-enrichment or nearness to the bait. Other partners may have been found. A no says only that the protein was not detected with the bait. Tags and fused reporters may be left off the sequences shown.
# Target: T1, GFP-CDK5RAP2(51-100) (human) (UniProt Q96SN8)
# T1 sequence: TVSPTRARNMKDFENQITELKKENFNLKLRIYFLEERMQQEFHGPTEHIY
# Assay: affinity purification with mass spectrometry
row,Substance,binding
1,NEDD1 (S. scrofa),no binding
2,Non-erythrocyte spectrin (S. scrofa),binds
